No constants are given. Whether binding was seen depends on the method and setting. Some binding calls cover weakened binding; strength is not graded here.
Key:
[1] = molecular target: CD147 protein (UniProt P35613); assay: ELISA relative binding activity (EC50 against a reference), dilution stability test at 25±2 °C for 7 days
[2] = molecular target: CD147 protein (UniProt P35613); assay: ELISA relative binding activity (EC50 against a reference), after high temperature, light and freeze-thaw stress
[3] = molecular target: CD147 protein (UniProt P35613); assay: ELISA relative binding activity (EC50 against a reference), long-term stability test at 2-8 °C for 2 years

The chains behind the UniProt entries cited, without tags or fusion partners. Where a name states a change or a piece, a line headed by the entry shows the natural chain unless it says otherwise. A line that says so, or that is headed by a name, gives the form on record, which may keep a tag or linker.
CD147 protein (P35613, form named): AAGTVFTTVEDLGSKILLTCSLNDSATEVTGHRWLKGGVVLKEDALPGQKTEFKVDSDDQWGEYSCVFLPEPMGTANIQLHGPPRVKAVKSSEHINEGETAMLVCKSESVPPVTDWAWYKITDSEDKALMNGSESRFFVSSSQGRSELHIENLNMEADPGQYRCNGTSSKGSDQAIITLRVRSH

binding [1]: binds
binding [2]: binds
binding [3]: binds
B1: HcHAb18 monoclonal antibody (antibody, human IgG1, kappa, V domains shown)
VH: EVKLEESGGGLVQPGGSMKLSCVASGFTFSDAWMDWVRQSPEKGLEWVAEIRSKANNHAPYYTESVKGRFTISRDDSKSIIYLQMNNLRAEDTGIYYCTRDSTATHWGQGTLVTVSA
VL: SIVMTQTPTFLVVSAGDRVTITCKASQSVINDVAWYQQKPGQSPKLLIFYASNRNTGVPDRFTGSGYGTDFTFTISTVQAEDLAVYFCQQDYSPPFTFGSGTKLEIKR
